Measurements as given in patent US8409814B2, “Sensor proteins and assay methods” (Life Technologies Corporation, priority 2006, dated 2013).

Tested on: recombinant bovine alkaline phosphatase
Assay: Cleavage by alkaline phosphatase detected with coumarin-PBP fluorescence
Assay type: biochemical
Conditions: for cleavage by alkaline phosphatase within 5 minutes: 10 milli-units/mL alkaline phosphatase, 100 μM compound; for change in fluorescence intensity after alkaline phosphatase (cleavage): 8 units per 20 uL well alkaline phosphatase, wells with >1 uM compound; for cleavage by alkaline phosphatase within 5 minutes / change in fluorescence intensity after alkaline phosphatase (cleavage): 5 minutes; for alkaline phosphatase activity on compound after one hour: up to about 1 unit/mL alkaline phosphatase

SMILES	cleavage by alkaline phosphatase within 5 minutes	change in fluorescence intensity after alkaline phosphatase (cleavage)	alkaline phosphatase activity on compound after one hour
Nc1ncnc2c1ncn2[C@@H]1O[C@H](COP(=O)(O)OP(=O)(O)OP(=O)(O)O)[C@@H](O)[C@H]1O [ATP]	cleaved	–	–
O=[N+]([O-])c1ccc(OP(=O)(O)O)cc1 [PNP, p-nitrophenyl phosphate]	–	decrease in intensity at higher phosphatase concentrations	–
Nc1ncnc2c1ncn2[C@@H]1O[C@@H]2COP(=O)(O)O[C@H]2[C@H]1O [cAMP, cyclic AMP]	did not cleave	some increase in fluorescent intensity	no detectible activity
Nc1nc2c(ncn2[C@@H]2O[C@@H]3COP(=O)(O)O[C@H]3[C@H]2O)c(=O)[nH]1 [cGMP, cyclic GMP]	did not cleave	some increase in fluorescent intensity	no detectible activity
